Test results taken from patent US10450356B2, “PRAME derived peptides and immunogenic compositions comprising these” (Academisch Ziekenhuis Leiden H.O.D.N. LUMC, priority 2007, dated 2019).
Part of at least one peptide drawing is inferred or uncertain, most often the ends. Where no end group is shown, it is not given here.

By UniProt entry, the sequences of proteins in these tests, tags left out. Where a name states a change or a piece, a line headed by the entry shows the natural chain unless it says otherwise.
UniProt P28062: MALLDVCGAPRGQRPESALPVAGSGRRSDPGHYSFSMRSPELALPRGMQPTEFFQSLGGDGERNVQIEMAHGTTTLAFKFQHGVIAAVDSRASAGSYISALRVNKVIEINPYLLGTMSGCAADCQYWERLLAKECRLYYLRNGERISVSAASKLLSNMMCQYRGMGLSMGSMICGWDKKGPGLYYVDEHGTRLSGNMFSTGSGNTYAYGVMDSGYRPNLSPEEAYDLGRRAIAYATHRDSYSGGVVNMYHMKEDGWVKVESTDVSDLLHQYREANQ
UniProt P28065: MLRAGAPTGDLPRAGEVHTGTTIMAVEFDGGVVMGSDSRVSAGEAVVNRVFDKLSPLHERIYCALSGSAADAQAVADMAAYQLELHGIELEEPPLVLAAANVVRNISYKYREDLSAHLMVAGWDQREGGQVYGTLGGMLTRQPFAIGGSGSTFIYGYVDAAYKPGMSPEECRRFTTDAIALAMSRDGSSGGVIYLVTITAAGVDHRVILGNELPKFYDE
UniProt P40306: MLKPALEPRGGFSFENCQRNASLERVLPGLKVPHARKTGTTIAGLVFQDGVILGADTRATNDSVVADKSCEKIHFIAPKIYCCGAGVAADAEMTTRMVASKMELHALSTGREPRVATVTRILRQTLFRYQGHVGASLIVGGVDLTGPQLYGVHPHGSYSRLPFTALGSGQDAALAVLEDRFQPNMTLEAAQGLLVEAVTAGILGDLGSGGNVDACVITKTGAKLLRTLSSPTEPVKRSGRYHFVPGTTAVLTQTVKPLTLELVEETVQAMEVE

Experiments:
[1] = target: T1, 20S proteasomes purified from a B-LCL cell line (immunoproteasomes) (Homo sapiens, UniProt P28062+P28065+P40306); experiment: In vitro proteasome mediated cleavage analysis; assay type: biochemical; design: key to Intact in fragment / Intact Fragment: intact epitope found in digestion fragments: (+), present; (-), not present
T1 construct: 20S proteasomes were purified from a B-LCL cell line; endogenous in cells; purified after Groettrup et al. 1995
Procedure: 20S proteasomes were purified from a B-LCL cell line as described by Groettrup et al. (J. Biol. Chem. 270:23808-23815; 1995). This cell type is known to contain immunoproteasomes. High LMP2 and 7 content was confirmed by 2-D immuno-blotting. To assess kinetics, digestions were performed with different incubation periods. Peptides (27 mers, 20 μg) were incubated with 1 μg of purified proteasome at 37° C. for 1 h, 4 h and 24 h in 300 μl proteasome digestion buffer as described (Eggers, et al. 1995. J. Exp. Med. 182:1865). Trifluoroacetic acid was added to stop the digestion and samples were stored at −20° C. before mass spectrometric analysis.
Electrospray ionization mass spectrometry was performed on a hybrid quadrupole time-of-flight mass spectrometer, a Q-TOF (Micromass), equipped with an on-line nanoelectrospray interface with an approximate flow rate of 250 nL/min. Injections were done with a dedicated micro/nano HPLC autosampler, the FAMOS (LC Packings). Digestion solutions were diluted five times in water-methanol-acetic acid (95:5:1, v/v/v), and trapped on the precolumn (MCA-300-05-C8; LC Packings) in water-methanol-acetic acid (95:5:1, v/v/v). Washing of the precolumn was done for 3 min to remove the buffers present in the digests. Subsequently, the trapped analytes were eluted with a steep gradient going from 70% B to 90% B in 10 min, with a flow of 250 nl/min (A: water-methanol-acetic acid (95:5:1, v/v/v); B: water-methanol-acetic acid (10:90:1, v/v/v)). This low elution rate allows for a few additional MS/MS experiments if necessary during the same elution. Mass spectra were recorded from mass 50-2000 Da every second. The resolution allows direct determination of the monoisotopic mass, also from multiple charged ions. The peaks in the mass spectrum were searched in the digested precursor peptide using the Biolynx/proteins software (Micromass). The intensity of the peaks in the mass spectra was used to establish the relative amounts of peptides generated by proteasome digestion.

[2] = test system: peptide loaded target cells or tumor target cells; experiment: 51Cr-release cytotoxicity assay with CTL clones; assay type: cell-based, human; design: key to CTL induced against this HLA/peptide combination, specifically recognizing tumor cells: +, CTL induced and recognize tumor cells; -, CTL induced but do not recognize tumor cells
Excerpt: Peripheral blood mononuclear cells (PBMC) for CTL inductions were obtained by the Ficoll-Paque method from blood from healthy donors. To optimally use all APC present in PBMC we developed a culture system that yields a mix of activated B cells and mature DC to be used as APC during the primary induction step. PBMC were separated in a T cell fraction and a fraction containing B cells and monocytes by SRBC-rosetting. The T cell fraction was cryopreserved. The mixture of monocytes and B cells was cultured in 24 wells plates at a concentration of 1×10^6 cells/well in complete culture medium containing 800 U/ml GM-CSF, 500 U/ml IL-4 (PeproTech Inc.) and 500 ng/ml CD40 mAb (clone B-B20; Serotec) for 6 days. This culture system achieved a threefold effect: i) GM-CSF and IL-4 induced differentiation of monocytes into immature dendritic cells, ii) IL-4 and CD40 mAb caused activation and proliferation of B cells (Schultze, et al. 1997, J Clin. Invest. 100:2757) and iii) CD40 mAb mediated maturation of immature dendritic cells (Cella, et al. 1996. J Exp Med 184:747). At day 3, cytokines and CD40 mAb were replenished. To further promote CTL inducing capacity, the APC-mix was cultured for an additional 2 days with 0.4 ng/ml LPS (Difco Labs), 500 U/ml IFN (Boehringer Mannheim) and 500 ng/ml CD40 mAb. At day 8 the APC-mix was pulsed with 50 μg/ml peptide (each peptide separately) for 4 h at RT, irradiated (30 Gy) and washed to remove free peptide. The cryopreserved autologous T cell fraction was thawed and depleted from CD4 T cells using magnetic beads (Dynal). The primary induction was performed in 96 well U-bottom plates. APC at a concentration of 10,000/well were co-cultured with 50,000 […] in culture medium, containing 10% human pooled serum (HPS), 5 ng/ml IL-7 (PeproTech) and 0.1 ng/ml IL-12 (Sigma). At day 7 after initiation of induction the CTL micro-cultures were harvested (pooled), washed and restimulated at a concentration of 40,000 responder cells/well of 96-well U-bottom plates in culture medium containing 10% HPS, 5 ng/ml IL-7 and 0.1 ng/ml IL-12. […]

[3] = test system: CD8+ CTL from PBMC of healthy donors; experiment: In vitro induction of CTL against synthetic CTL epitopes; assay type: cell-based, human; details: peptide loaded in the correct HLA class I molecule on B-LCL target cells; data not shown
Excerpt: Peripheral blood mononuclear cells (PBMC) for CTL inductions were obtained by the Ficoll-Paque method from blood from healthy donors. To optimally use all APC present in PBMC we developed a culture system that yields a mix of activated B cells and mature DC to be used as APC during the primary induction step. PBMC were separated in a T cell fraction and a fraction containing B cells and monocytes by SRBC-rosetting. The T cell fraction was cryopreserved. The mixture of monocytes and B cells was cultured in 24 wells plates at a concentration of 1×10^6 cells/well in complete culture medium containing 800 U/ml GM-CSF, 500 U/ml IL-4 (PeproTech Inc.) and 500 ng/ml CD40 mAb (clone B-B20; Serotec) for 6 days. This culture system achieved a threefold effect: i) GM-CSF and IL-4 induced differentiation of monocytes into immature dendritic cells, ii) IL-4 and CD40 mAb caused activation and proliferation of B cells (Schultze, et al. 1997, J Clin. Invest. 100:2757) and iii) CD40 mAb mediated maturation of immature dendritic cells (Cella, et al. 1996. J Exp Med 184:747). At day 3, cytokines and CD40 mAb were replenished. To further promote CTL inducing capacity, the APC-mix was cultured for an additional 2 days with 0.4 ng/ml LPS (Difco Labs), 500 U/ml IFN (Boehringer Mannheim) and 500 ng/ml CD40 mAb. […]

[4] = test system: Proteasome, Nardilysin and Thimet oligopeptidase (TOP); experiment: Cell free digestion with purified Proteasome, Nardilysin and Thimet oligopeptidase; assay type: biochemical; details: footnote k; Example 3 and FIG. 2

Compound | Intact Fragment: intact epitope found in digestion fragments ([1]; after 1 h digestion) | Intact in fragment ([1]; intact epitope found in digestion fragments after 1 h digestion) | CTL induced against this HLA/peptide combination, specifically recognizing tumor cells ([2]; HLA-A3) | Requirement of Nardilysin and TOP for epitope generation in living cells ([2]; PRAME and HLA-A3 positive targets with Nardilysin or TOP suppressed by RNA-interference, data not shown) | Recognition of target cells expressing HLA-A11 and PRAME by CTL ([2]; data not shown) | Induction of bulk CTL cultures recognizing the inducing peptide [3] | Processing C-term: epitope generated by non-proteasomal cleavages [4] | Processing C-term: generation by proteasome-mediated digestion of fragments containing the correct C-terminus ([1]; 1 h digestion) | C-term. generation ([1]; generation of C-terminus of the epitope after 1 h digestion)
CC[C@H](C)[C@H](NC(=O)[C@H](CC(C)C)NC(=O)[C@H](Cc1ccc(O)cc1)NC(=O)[C@H](CO)NC(=O)[C@H](Cc1ccccc1)NC(=O)[C@H](CC(C)C)NC(=O)[C@@H](N)CCC(=O)O)C(=O)N[C@@H](CCC(=O)O)C(=O)N[C@@H](CCCCN)C(=O)O | + | + | + | crucially required | specifically recognized | capable to induce bulk CTL cultures that highly specifically recognized the inducing peptide | +^(k) ((+) present for <5%) | – | –
LPRELFPPLF | – | – | – | – | – | – | – | + ((+) present for <5%) | + (low abundant (+) present for <5%)
